The source of these data is paper PMC3771576.

Protein sequences, listed by entry. Tags and fused reporters are not part of them.
UniProt B5DE31, whole entry: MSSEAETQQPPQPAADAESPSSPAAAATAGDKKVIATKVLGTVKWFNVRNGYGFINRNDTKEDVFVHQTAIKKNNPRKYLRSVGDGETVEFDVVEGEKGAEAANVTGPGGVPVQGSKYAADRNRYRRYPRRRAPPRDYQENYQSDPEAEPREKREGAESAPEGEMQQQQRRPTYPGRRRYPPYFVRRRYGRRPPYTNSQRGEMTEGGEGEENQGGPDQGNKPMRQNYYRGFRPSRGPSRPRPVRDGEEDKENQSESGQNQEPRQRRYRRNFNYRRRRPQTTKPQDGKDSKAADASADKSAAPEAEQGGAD

Negatives hold for the conditions tested.

This data set has as its target rYbx1 (wild type) (Danio rerio (zebrafish)) (UniProt B5DE31). The data set is described as follows: EMSA. To be noted: RNA EMSA; binding buffer and temperature not given; extract lysis buffer 20 mM Tris pH 8.0, 100 mM NaCl, 0.1 mM EDTA, 1 mM 6-aminohexanoic acid, 1 mM PMSF, 25% glycerol; recombinant protein; residues 1-310; protein details: 6xHis; label: 32P (radioactive); probe letters rebuilt from the primers and the genome. In general terms: A gel shift assay detects complexes by their altered migration in electrophoresis.

As to “GGGAGAAAAGCCAGACCAUUCCUUCUUUUCAACGCACUCAUUUCCUAGCUAAAGCCAUCGUGACACACCUUAGCAUUCCUGUUCCCACCUACGAGACGCUGCAUUCGUCUCUGUAGAUGUCUGUGUGUGUGUGUGUUAGUUUCUUUUGACAGUAUUUGUGUCAGUGUCACUCCACAGGCAUUGCUGUAGUUGUUGCCAUUUUGGGUGUAAUCACGUUGUGUUGGUGUAAAGAGAAUAACCGAAUAAAGUUUAAUGAGGUAUAAAGGCUACUGUAAUGCAGUUUAAAAA [gapdh probe]”, the binding result is given as “no binding”.
